{
  "source": "paper PMC11674849",
  "molecular_target": "Wilms Tumor 1 (WT1) (human (endogenous in conditionally immortalized human podocytes)) (UniProt P19544)",
  "assay": "co-IP; lysates of V/DPDs, G0/DPDs, G1/DPDs and G2/DPDs (differentiated human podocytes stably expressing vector, APOL1 G0, G1 or G2) immunoprecipitated with 5 ug WT1 antibody, protein A+G sepharose beads, RIPA buffer, 4 °C, 4 h; washed 3x with RIPA; immunoblot",
  "note": "Results are given in words; binding and its absence hold for the method and conditions named. In cells and extracts the contact can be indirect. Some binding calls cover weakened binding; strength is not graded here.",
  "data": [
    {"substance": "Histone Deacetylase 1 (HDAC1) (from UniProt Q13547 1-482) (enzyme)", "values": [
      {"measurement": "binding", "result": "binds"}
    ]}
  ]
}
